## Primary screen of a compound library

Source: ChEMBL document CHEMBL3988442, “University of Dundee, Small-Polar-MMV Screening Library” (2021).

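Growth of Mycobacterium tuberculosis over 3 days (7H9 medium with glucose and tyloxapol); the read-out is not stated. Compounds at 50 µM. Direction is inferred from retests: higher values go with more growth inhibition. Size under these conditions: about 69,000 compounds, about 760 of them at 50% or above in at least one test.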

Values are the deposited “Percent Effect”, in %. The record does not define 0% and 100%; most values in the screen are far below 50% and negative numbers occur (in some assays of this library far below -100). This is an unselected part of the compounds tested. Two or more numbers in one place are separate tests of the same structure; such repeats can differ widely.

structure,Percent Effect
OC[C@@H]1CCCN1Cc1cn(C2CCN(C3CCCC3)CC2)nn1,9.903 and 2.952
Cc1nccc(C2CCCCN2Cc2ccc(F)cc2)n1 (centres unmarked),9.454
Cc1cncc(C2CCCN(C(=O)c3c[nH]c(=O)[nH]c3=O)C2)n1 (centres unmarked),-11.88
COc1cccc(CNC(C)c2ccc(-n3ccnc3)cc2)c1O (centres unmarked),10.84
CCC(c1ccccc1)N1CCN(C(=O)c2cc(C(N)=O)c[nH]2)CC1 (centres unmarked),14.9
CC(Nc1ncnc2c1CCNC2)c1ccc(C(C)(C)C)cc1 (centres unmarked),32.42
Cc1nc2n(n1)CC(NCc1c(Cl)ccc3cccnc13)CC2 (centres unmarked),-15.84
CCc1cnc(C)nc1NC1CC(=O)N(CC)C1 (centres unmarked),-25.89
CSCc1nc(CCNC(=O)c2cnn(C(C)C)c2)cs1,-5.009
Cc1nnc(CN2CCCC2c2ccc(C(C)(C)C)cc2)o1 (centres unmarked),21.51 and 8.974
COc1ccc([C@@H](C)n2ccnc2-c2cc3n(n2)CCCNC3)cc1,-6.248 and 2.992
CNC(=O)NC(=O)CCSCc1cc(F)cc2cccnc12,36.22
CC1COCCN1Cc1noc(C(C)(C)C)n1 (centres unmarked),-19.15
O=c1[nH]c(NCCCO)nc2c1C1(CCCC1)Cc1ccccc1-2,4.169
COCC1CN(Cc2ccc(F)cc2)Cc2nn(C)cc21.O=C(O)C(F)(F)F (centres unmarked),4.782
Cc1cc(C(=O)N2CC[C@H](OCC3CC3)[C@@H]2Cc2cccnc2)no1,10.22
O=C(Cc1ccc2c(c1)OCCO2)NC1CCCC1,-30.78
CCN(Cc1ccncc1)S(C)(=O)=O,14.64
Cc1cc(N2CCC(c3n[nH]c4nccnc34)C2)ncn1 (centres unmarked),-27.37
Cn1cc(C(=O)Nc2ccc(CC(=O)NCC(F)(F)F)cc2)nn1,18.14
C[C@@H]1CN(CC(C)(C)N2CCOCC2)CC[C@@]1(O)C1CCOCC1,-27.04
CCCN1CCC2(C1)c1ccccc1S(=O)(=O)N2C.O=C(O)C(F)(F)F (centres unmarked),-9.571 and -4.672
NC(=O)CN1CCCN(C(=O)Cc2ccc(F)cc2)CC1,-3.732
c1ccc(-n2cncn2)c(CNCCn2cccn2)c1,-1.717 and -6.305
Cn1c(CC2CCS(=O)(=O)C2)nnc1SCCOc1ccccc1F (centres unmarked),19.94
CN(Cc1cc2n(n1)CCCN(C(=O)N1CCCC1)C2)Cc1nccs1,1.036 and 3.14
O=c1cc(Cn2ccnc2)nc2n1CCCN(Cc1ccc(F)cc1)C2,15.6
O=C(O)C(F)(F)F.O=C(O)C(F)(F)F.O=C(O)C(F)(F)F.[H][C@@]12CO[C@@H](CN3CCN(C)CC3)[C@]1([H])CCN(Cc1ccc(C)cc1)C2,15.78
COCCNC(=O)NCc1cc(-c2ccncc2)n(C2CCCC2)n1,16.89
CCOC1CCCN(C(=O)CCOc2ccc(C)cc2OC)C1 (centres unmarked),-32.69
CCS(=O)(=O)Nc1ccc2oc(C)c(C(C)=O)c2c1,-26.18 and -4.599
Cc1cc(N(C)C)nc(N2CCn3c(C)nnc3C2)n1,-11.72 and 0.5807
NC(=O)CCOc1nc(-c2ccccc2Cl)no1,-34.27 and -4.322
[H][C@]12CCCC(=O)N[C@@]1(C)CCCCN2C(=O)c1cccc(C)n1,16.05
CC(=O)N1CCC2(CC1)CN(C)CC[C@H]2C(F)(F)F.Cl,-37.36 and 3.936
CCc1nc2n(n1)CC(NCc1nc(C)ccc1O)CC2 (centres unmarked),-27.66 and -14.58
CCn1cc(NC(=O)c2cc(C)nc(N3CCOCC3)n2)cn1,-15.14
COc1ccc(CN(C)[C@@H]2COC[C@H]2c2ccc(F)cc2)c(OC)c1.O=C(O)CC(O)(CC(=O)O)C(=O)O,20.46
O=C(O)C(F)(F)F.[H][C@]12C[C@@H](CN(C)C)N(C(C)=O)[C@@]1([H])CCN(C(=O)c1occc1C)C2,18.33
CNS(=O)(=O)CCCN1CCCN(Cc2ccccc2)CC1C (centres unmarked),-12.2
Cc1ccc(CN2CCS(=O)(=O)C(C)(C)C2)cc1C,13.58
CN(C)c1nc2c(c(N3CCc4c(c(CO)nn4C)C3)n1)CCNC2,-52.64
CC1COCCN1C(=O)NCCCn1ccnc1 (centres unmarked),-28.45
Cc1ccc(S(=O)(=O)N2CC(C)Oc3ncccc32)c(F)c1 (centres unmarked),-3.273 and 7.072
O=C(CN1CCCc2sccc2C1=O)NC1CCc2nccn2C1 (centres unmarked),-14.77
CC(C)(C)CN(CCC#N)C(=O)c1cccc(CN2CCCC2)c1,-9.621
CCc1nc(NS(=O)(=O)c2ccc(F)cc2Cl)no1,-0.2174
CC(C)Oc1cccc(C(=O)C2CCCN(C(=O)c3ccccn3)C2)c1 (centres unmarked),8.389
Cn1cc(CN2CCC3(CC2)NC(=O)CC3c2ccncc2)cn1.O=C(O)C(F)(F)F.O=C(O)C(F)(F)F (centres unmarked),21.24
CCSCC(C)NCc1nc(-c2cccnc2)no1 (centres unmarked),-11.55
Cn1nc2c(cc1=O)CN(c1nc3ccccc3s1)CC2,4.555
Cc1nccn1CCN(C)c1cc(C(C)C)nc2ccnn12,-20.09
CC(C)N(C)Cc1nnc2n1CCCN(c1cnccn1)C2,0.04687
CN(C)C(=O)C1(C)CN(Cc2cn(C)c3ccccc23)CCO1 (centres unmarked),8.868
CN1CC(c2n[nH]c(=O)n2-c2cccc(Cl)c2)CC1=O (centres unmarked),-0.426 and -14.58
CC(C)(CNc1ccc(S(=O)(=O)C(F)F)cc1)N1CCOCC1,-2.568
Cc1ccc(=O)n(CC2(O)CCN(Cc3cnc(N(C)C)nc3)CC2)n1,-11.1
CCSCCC(=O)Nc1ncn(Cc2cccnc2)n1,-4.331
O=C(CO)N1CCCC(N2CCN(c3ccccc3F)CC2)C1 (centres unmarked),10.24 and -6.638
NC(=O)c1ccc(C2CCCN2C(=O)CCn2nnc3ccccc32)s1 (centres unmarked),3.832
O=C(Nc1ccccc1OCCc1ccccn1)N1CCOCC1,-1.968
c1ncn(CCNC2CCCN(Cc3noc(C4CC4)n3)C2)n1 (centres unmarked),-30.46
CC(=O)N1CC(=O)N(c2cnn(C)c2)CC12CCN(Cc1ccsc1)C2.O=C(O)C(F)(F)F.O=C(O)C(F)(F)F (centres unmarked),-35.75
CCCc1noc(CCC(=O)N2CCCC2c2noc(C3CC3)n2)n1 (centres unmarked),-6.493
O=C(NC1CCC1)C1CCC2(CN(C(=O)c3ccno3)C2)O1 (centres unmarked),-1.832 and 20.75
Cc1nc2n(n1)CC(NCC(=O)NCCCOC(C)C)CC2 (centres unmarked),-4.063
CCC(CC)NC(=O)CN1CCN(C(=O)N(C)C)CC1,7.48
O=C(N[C@H]1COC[C@@H]1N1CCCC1)c1c[nH]nc1C1CCCCC1,12.05
Cc1cc(C(=O)NCc2cccn2C)nn1C,32.33 and -4.495
Cc1noc(C)c1C(=O)N1CCCC(c2c(C)c(=O)nc3n2CCC3)C1 (centres unmarked),11.31
CCn1ccnc1CN1CCN(CC(=O)NC(C)(C#N)C2CC2)CC1 (centres unmarked),-37.21
CN(C)c1cc(C2CCCN2Cc2ccccc2OCC(=O)O)ccn1 (centres unmarked),28.74
Cc1nn(C)cc1CN1CCCn2nc(CNC(=O)C3CCC3)cc2C1,5.522
Cc1cncc(C(=O)N2CCNCC2C(=O)Nc2ccc(C)nc2)c1 (centres unmarked),5.045 and 4.549
O=C(O)C(F)(F)F.O=C(O)C(F)(F)F.[H][C@]12CN(C)C[C@@]1(C(=O)O)CCCN(Cc1ccsc1)C2,0.08779 and 6.89
O=C(Cn1cnc2cc3c(cc21)OCCCO3)NC1CCCC1,19.64
Cn1ccnc1CN1CCCCC1c1nc(-c2ccccc2)no1 (centres unmarked),14.48
COC(=O)[C@H]1C[C@@H](O)CCN1S(=O)(=O)c1ccc(F)cc1F,-27.18 and 2.013
COc1ccc(CN[C@@H]2CO[C@H](CNC(=O)N3CCOCC3)[C@H]2O)cc1,-32 and -6.944
Cc1noc(CN(Cc2ccc3c(c2)OCO3)Cc2ccc(C)o2)n1,9.696